# Laboratory results: PubChem BioAssay AID493014 (National Center for Advancing Translational Sciences (NCATS), 2011)
# This is one part of the list. Further columns of the screen follow, without active or inactive calls. Most of these compounds were active or inconclusive in the main read-out, so they are no random draw. Potencies come from curve fits of mixed quality, noted in brackets.
# Experiment: qHTS Assay to Find Inhibitors of Chronic Active B-Cell Receptor Signaling
# Settings: ABC-DLBCL IkBa-CBG/CBR reporter, luminescence ratio (green luciferase fused to IkBa over red control in TMD8 lymphoma cells), 4 h; measured here: CBR red luminescence, cell number
# Procedure, shortened: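 Compounds up to 46 uM were incubated four hours with TMD8 cells whose green CBG68 luciferase is fused to IkappaBalpha; red CBR luminescence normalised the signal, and concentration-effect curves were fitted to fusion, red and ratio data.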
row,SMILES,AC50
1,O=C(CSc1nc2ccccc2c(=O)n1-c1ccccc1)NCC1CCCO1 (stereo unspecified),"6.31 µM [rising, full curve, poor fit]"
2,CC(C)C1NC(C(=O)O)Cc2c1[nH]c1ccccc21 (stereo unspecified),"35.5 µM [falling, single point]"
3,O=S(=O)(c1ccccc1)N1CCSC1c1ccco1 (stereo unspecified),"6.51 µM [falling, single point]"
4,CC(C)OCCCn1c(=NC(=O)c2cccs2)c(C#N)cc2c(=O)n3ccccc3nc21,"14.1 µM [falling, single point]"
5,O=C(c1cccc(C(=O)N2CCN(c3ccccc3F)CC2)c1)N1CCN(c2ccccc2F)CC1,"29.1 µM [rising, single point]"
6,O=C(CCC1N=C2c3ccccc3N=C(SCc3ccc(F)cc3)N2C1=O)NCCc1ccccc1 (stereo unspecified),"12.6 µM [falling, single point]"
7,Cc1ccc(C(=O)N/N=c2\sc3ccccc3n2C)cc1,"5.17 µM [falling, partial curve, poor fit]"
8,CCOC(=O)C1(Cc2cccc(Cl)c2)CCCN(C(=O)CCOC)C1 (stereo unspecified),"0.447 µM [rising, full curve, poor fit]"
9,CC12Cc3ccc4ccccc4c3C=C1C[N+](C)(C)C2 (stereo unspecified),"0.651 µM [falling, full curve]"
10,Cc1cc(C)nc(NC(=O)CCC2CCCC2)c1,"14.6 µM [falling, single point]"
11,Nc1cccc2c1C(=O)N(C(=O)/C=C/c1cccc(Br)c1)C2=O,"35.5 µM [falling, single point]"
12,CC(C)NC(=S)N/N=C/c1sc(N2CCCCC2)nc1-c1cccs1,"6.51 µM [rising, single point]"
13,Cc1ccc2ncnc(NCCCCCC(=O)O)c2c1,"31.6 µM [rising, single point]"
14,CN(Cc1ccccc1)C(=O)c1c[nH]c2ccc(S(=O)(=O)N3CCOCC3)cc2c1=O,"29.1 µM [rising, single point]"
15,CCOc1cc(C(=O)OC(C(=O)NC(=O)NC)c2ccccc2)ccc1OCC(=O)N1CCOCC1 (stereo unspecified),"5.8 µM [rising, full curve, poor fit]"
16,COc1ccc(OC)c(C2=NOC(C(=O)N3CCN(c4ccccc4)CC3)C2)c1 (stereo unspecified),"29.1 µM [rising, partial curve, poor fit]"
17,CCOC(=O)c1c(NC(=O)CN2C(=O)NC(C)(c3ccc(OC(F)F)cc3)C2=O)sc(C)c1C (stereo unspecified),"14.6 µM [falling, single point]"
18,CCOC(=O)N=S(=O)(Oc1ccc([N+](=O)[O-])cc1)c1ccc(Cl)cc1 (stereo unspecified),"29.1 µM [falling, single point]"
19,COc1ccc2oc(=O)c(C(=O)N3CCN(c4ccccc4)CC3)cc2c1,"8.91 µM [rising, partial curve, poor fit]"
20,CCN1C(=O)C2CCCCN2c2ccc(C(=O)NCCOC)cc21 (stereo unspecified),"35.5 µM [rising, single point]"
21,CCCCNC(=O)CSc1nc2n[nH]c(C)c2c(=N)n1-c1cccc(Cl)c1C,"5.01 µM [falling, partial curve, poor fit]"

row,SMILES,AC50
1,CCCc1c(O)c2ccccc2n(-c2ccccc2)c1=O,"11.2 µM [rising, partial curve, poor fit]"
2,N#Cc1c(N)nc(SCC(=O)NCc2ccc3c(c2)OCO3)c(C#N)c1-c1cccs1,"15.8 µM [falling, single point]"
3,O=C(O)CCCCCN=Cc1c(O)c2ccccc2oc1=O,"0.447 µM [falling, full curve, poor fit]"
4,Cn1c(=O)[nH]c(=O)c2c1nc(Sc1ccccc1)n2CCc1ccccc1,"5.17 µM [falling, full curve]"
5,NC(=O)C1CCN(c2nc(-c3ccccc3F)cs2)CC1,"3.26 µM [rising, single point]"
6,O=C(/C=C/c1cccnc1)/C=C/c1cccnc1,"3.55 µM [falling, full curve, poor fit]"
7,COc1ccc(NC(=S)/N=C(\N)Nc2nc(C)c3ccc(C)cc3n2)cc1,"7.94 µM [falling, partial curve]"
8,C/C(Nc1ccc(C)cc1)=C(/C#N)C(N)=O,"2.59 µM [rising, partial curve]"
9,O=C(CCN1C(=O)/C(=C/c2ccc(F)cc2)SC1=S)N[C@@H](CO)Cc1ccccc1,"4.47 µM [falling, partial curve, poor fit]"
10,O=C1c2ccccc2C(=O)N1CCc1nc(-c2ccc(Cl)cc2)no1,"29.1 µM [rising, single point]"
11,Cn1c(CNC(=O)c2ccccc2F)nnc1SCC(=O)NCc1ccccc1,"28.2 µM [rising, single point]"
12,CSc1ccc(-c2nc(CN(C)C3CCOC3)c(C)o2)cc1 (stereo unspecified),"11.2 µM [rising, partial curve]"
13,COc1cc(OC)cc(N2C(=O)N(Cc3ccc(C(C)(C)C)cc3)c3ccccc3S2(=O)=O)c1,"1.41 µM [rising, full curve]"
14,COC(=O)c1ccccc1OCCOCCOc1cccc2cccnc12,"25.9 µM [falling, single point]"
15,O=C(NCCC1=CCCCC1)c1cc(-c2ccncc2)nc2ccccc12,"4.47 µM [rising, single point]"
16,O=C(NNC(=S)NC(=O)c1cccs1)c1cccnc1,"8.91 µM [falling, partial curve, poor fit]"
17,COCc1ccc(C(=O)N2CCCC(CCC(=O)NCc3ccccc3F)C2)o1 (stereo unspecified),"0.631 µM [rising, full curve, poor fit]"
18,COCCn1c(-c2ccc(OC)cc2)nc2ccccc21,"5.17 µM [falling, single point]"
19,O=C(CSC1CS(=O)(=O)c2cc([N+](=O)[O-])ccc21)NNC(=O)c1ccc(Cl)cc1 (stereo unspecified),"11.2 µM [falling, partial curve]"
20,COc1ccc(NC(=O)CSc2nnc(CNC(=O)c3ccco3)n2-c2ccccc2OC)cc1,"7.08 µM [falling, partial curve, poor fit]"

# Compounds shown so far with a nitro group on carbon:
row,SMILES,AC50
18,CCOC(=O)N=S(=O)(Oc1ccc([N+](=O)[O-])cc1)c1ccc(Cl)cc1 (stereo unspecified),"29.1 µM [falling, single point]"
19,O=C(CSC1CS(=O)(=O)c2cc([N+](=O)[O-])ccc21)NNC(=O)c1ccc(Cl)cc1 (stereo unspecified),"11.2 µM [falling, partial curve]"
